Results from the M2OR odorant receptor database.
The entries are a selection whose mix differs from that of the whole data set. The calls were merged from several studies; some rest on single wells. The list shows a part of the results.

How the values were obtained:
Conditions in all cases: stereoisomer not certain
OR6C2 (Homo sapiens) = molecular target: T1, OR6C2 (Homo sapiens) (UniProt Q9NZP2)
T1 sequence (whole entry): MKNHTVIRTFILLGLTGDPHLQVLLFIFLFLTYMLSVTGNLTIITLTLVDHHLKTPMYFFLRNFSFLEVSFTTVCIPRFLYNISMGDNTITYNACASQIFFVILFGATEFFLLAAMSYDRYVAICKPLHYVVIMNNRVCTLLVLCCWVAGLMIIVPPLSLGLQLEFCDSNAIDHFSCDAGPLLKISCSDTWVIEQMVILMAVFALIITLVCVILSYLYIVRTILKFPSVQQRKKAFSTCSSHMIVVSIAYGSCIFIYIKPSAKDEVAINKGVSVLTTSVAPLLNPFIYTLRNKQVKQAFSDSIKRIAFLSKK
How it was run: (§1)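 Whether a receptor–molecule pair is responsive (active) rests on the original authors' judgment that its measured signal was statistically different from baseline. Pairs without that judgment are non-responsive (inactive). Sources used varied assay methods, commonly transient luciferase assays in mammalian cell lines.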

OR6C3 (Homo sapiens) = molecular target: T2, OR6C3 (Homo sapiens) (UniProt Q9NZP0)
T2 sequence (whole entry): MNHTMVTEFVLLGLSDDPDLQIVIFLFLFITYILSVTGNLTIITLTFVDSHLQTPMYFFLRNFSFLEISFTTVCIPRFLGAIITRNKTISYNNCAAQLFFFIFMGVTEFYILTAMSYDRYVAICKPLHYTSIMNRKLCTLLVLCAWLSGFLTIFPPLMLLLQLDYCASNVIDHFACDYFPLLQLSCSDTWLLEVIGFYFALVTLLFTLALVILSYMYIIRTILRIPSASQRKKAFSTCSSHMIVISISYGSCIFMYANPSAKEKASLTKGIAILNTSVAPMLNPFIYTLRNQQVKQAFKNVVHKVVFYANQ
How it was run: as §1

OR6C4 = test system: T3, OR6C4
T3 sequence (whole entry): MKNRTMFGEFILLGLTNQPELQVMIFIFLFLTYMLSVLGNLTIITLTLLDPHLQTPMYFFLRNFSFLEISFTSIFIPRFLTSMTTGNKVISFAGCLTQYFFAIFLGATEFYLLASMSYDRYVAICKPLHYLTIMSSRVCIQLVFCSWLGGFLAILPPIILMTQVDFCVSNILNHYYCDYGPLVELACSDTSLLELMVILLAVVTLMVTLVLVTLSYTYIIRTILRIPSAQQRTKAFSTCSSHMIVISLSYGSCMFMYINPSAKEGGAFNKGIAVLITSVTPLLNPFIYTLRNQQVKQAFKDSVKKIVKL
How it was run: as §1

OR6C6 (Homo sapiens) = molecular target: T4, OR6C6 (Homo sapiens) (UniProt A6NF89)
T4 sequence (whole entry): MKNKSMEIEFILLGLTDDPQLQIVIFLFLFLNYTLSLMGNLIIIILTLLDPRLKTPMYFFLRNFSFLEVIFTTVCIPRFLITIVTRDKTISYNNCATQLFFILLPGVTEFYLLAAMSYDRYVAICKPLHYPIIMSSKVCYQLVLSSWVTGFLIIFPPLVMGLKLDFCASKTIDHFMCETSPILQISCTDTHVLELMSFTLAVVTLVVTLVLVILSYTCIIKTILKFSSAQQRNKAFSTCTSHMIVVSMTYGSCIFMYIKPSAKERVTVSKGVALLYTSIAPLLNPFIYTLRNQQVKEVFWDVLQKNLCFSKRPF
How it was run: as §1

OR6C65 (Homo sapiens) = molecular target: T5, OR6C65 (Homo sapiens) (UniProt A6NJZ3)
T5 sequence (whole entry): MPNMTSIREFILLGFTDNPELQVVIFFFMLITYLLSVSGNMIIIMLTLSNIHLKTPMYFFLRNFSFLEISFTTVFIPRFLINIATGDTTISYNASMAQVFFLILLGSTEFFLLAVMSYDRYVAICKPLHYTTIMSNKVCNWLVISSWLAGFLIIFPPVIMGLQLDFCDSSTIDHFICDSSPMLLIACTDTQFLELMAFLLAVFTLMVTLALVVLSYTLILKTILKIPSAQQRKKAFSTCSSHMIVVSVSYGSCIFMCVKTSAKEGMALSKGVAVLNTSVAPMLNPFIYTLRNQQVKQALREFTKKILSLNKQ
How it was run: as §1

OR6C74 (Homo sapiens) = molecular target: T6, OR6C74 (Homo sapiens) (UniProt A6NCV1)
T6 sequence (whole entry): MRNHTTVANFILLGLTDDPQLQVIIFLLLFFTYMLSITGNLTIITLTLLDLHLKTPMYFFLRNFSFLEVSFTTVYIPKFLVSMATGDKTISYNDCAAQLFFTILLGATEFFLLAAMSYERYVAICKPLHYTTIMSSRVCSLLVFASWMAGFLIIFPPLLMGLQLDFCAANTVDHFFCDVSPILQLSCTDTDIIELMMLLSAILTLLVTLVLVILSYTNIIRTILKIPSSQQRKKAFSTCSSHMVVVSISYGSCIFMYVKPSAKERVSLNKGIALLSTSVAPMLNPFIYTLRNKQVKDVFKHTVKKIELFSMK
How it was run: as §1

OR6C75 (Homo sapiens) = molecular target: T7, OR6C75 (Homo sapiens) (UniProt A6NL08)
T7 sequence (whole entry): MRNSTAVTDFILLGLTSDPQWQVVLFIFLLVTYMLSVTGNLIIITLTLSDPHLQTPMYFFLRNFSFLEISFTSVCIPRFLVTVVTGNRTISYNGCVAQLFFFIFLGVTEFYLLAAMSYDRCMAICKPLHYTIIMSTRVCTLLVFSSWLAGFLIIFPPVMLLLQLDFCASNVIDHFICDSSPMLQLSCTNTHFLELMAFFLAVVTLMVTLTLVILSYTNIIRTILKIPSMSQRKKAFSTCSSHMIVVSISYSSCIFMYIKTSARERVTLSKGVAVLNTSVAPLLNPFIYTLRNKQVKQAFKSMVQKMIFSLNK
How it was run: as §1

OR6C76 (Homo sapiens) = molecular target: T8, OR6C76 (Homo sapiens) (UniProt A6NM76)
T8 sequence (whole entry): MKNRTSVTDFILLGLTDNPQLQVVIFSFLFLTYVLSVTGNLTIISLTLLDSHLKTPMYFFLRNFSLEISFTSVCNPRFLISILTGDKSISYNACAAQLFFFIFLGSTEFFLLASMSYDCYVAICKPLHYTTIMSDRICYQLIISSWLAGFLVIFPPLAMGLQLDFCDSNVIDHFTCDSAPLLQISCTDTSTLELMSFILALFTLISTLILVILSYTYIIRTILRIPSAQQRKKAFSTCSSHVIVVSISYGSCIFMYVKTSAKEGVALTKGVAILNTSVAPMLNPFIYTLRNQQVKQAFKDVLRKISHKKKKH
How it was run: as §1

OR6F1 (Homo sapiens) = molecular target: T9, OR6F1 (Homo sapiens) (UniProt Q8NGZ6)
T9 sequence (whole entry): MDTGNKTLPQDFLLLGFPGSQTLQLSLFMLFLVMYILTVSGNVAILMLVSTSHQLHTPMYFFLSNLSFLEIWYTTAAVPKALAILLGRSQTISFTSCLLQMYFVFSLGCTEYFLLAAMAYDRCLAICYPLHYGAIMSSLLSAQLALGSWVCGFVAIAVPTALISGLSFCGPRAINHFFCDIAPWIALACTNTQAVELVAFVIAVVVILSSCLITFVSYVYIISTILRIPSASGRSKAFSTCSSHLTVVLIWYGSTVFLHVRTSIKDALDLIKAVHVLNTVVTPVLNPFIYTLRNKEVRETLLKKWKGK
How it was run: as §1

OR6J1 = test system: T10, OR6J1
T10 sequence (whole entry): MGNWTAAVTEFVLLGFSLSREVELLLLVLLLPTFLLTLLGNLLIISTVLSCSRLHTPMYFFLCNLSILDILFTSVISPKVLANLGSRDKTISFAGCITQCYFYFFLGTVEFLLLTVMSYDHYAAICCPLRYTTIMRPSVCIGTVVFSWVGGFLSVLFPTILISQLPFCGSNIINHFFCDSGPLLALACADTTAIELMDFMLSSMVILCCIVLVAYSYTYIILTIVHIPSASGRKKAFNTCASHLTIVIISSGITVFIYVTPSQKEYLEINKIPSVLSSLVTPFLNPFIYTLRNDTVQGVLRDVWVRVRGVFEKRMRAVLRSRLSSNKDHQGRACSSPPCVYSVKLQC
How it was run: as §1

Measured: odorant receptor agonist call;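 also: active if original authors judged signal statistically different from baseline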

CS
inactive: all assays above
